No constants are given. Whether binding was seen depends on the method and setting. Binding seen in cells or lysates may run through a third protein. Some entries that bind do so weakly or less than the wild type.
Target: T1, Grb2-associated binder 1 (human (endogenous in Huh7-X and Hep3B)) (UniProt Q13480)
T1 sequence: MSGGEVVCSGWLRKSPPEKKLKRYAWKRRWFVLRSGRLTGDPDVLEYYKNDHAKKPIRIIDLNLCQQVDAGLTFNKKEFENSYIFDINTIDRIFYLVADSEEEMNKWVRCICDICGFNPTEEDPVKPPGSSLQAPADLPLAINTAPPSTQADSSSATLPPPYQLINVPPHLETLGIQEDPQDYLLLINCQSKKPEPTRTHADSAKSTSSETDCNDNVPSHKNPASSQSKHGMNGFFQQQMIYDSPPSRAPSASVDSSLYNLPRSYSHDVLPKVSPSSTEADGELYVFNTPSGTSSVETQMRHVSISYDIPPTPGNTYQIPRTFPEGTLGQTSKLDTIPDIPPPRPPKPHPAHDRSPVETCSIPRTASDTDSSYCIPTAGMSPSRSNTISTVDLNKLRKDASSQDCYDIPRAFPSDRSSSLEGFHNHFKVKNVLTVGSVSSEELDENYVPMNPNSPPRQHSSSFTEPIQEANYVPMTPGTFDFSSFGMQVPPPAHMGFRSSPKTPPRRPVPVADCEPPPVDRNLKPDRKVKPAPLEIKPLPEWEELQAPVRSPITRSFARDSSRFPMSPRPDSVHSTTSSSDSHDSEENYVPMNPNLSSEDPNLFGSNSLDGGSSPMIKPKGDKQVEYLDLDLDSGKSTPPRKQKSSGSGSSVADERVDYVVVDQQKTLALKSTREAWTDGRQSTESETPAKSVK
Test: co-IP; endogenous Gab1 precipitated overnight with anti-Gab1 antibodies and protein A/G PLUS-agarose from Huh7-X and Hep3B cell extracts (150 mM NaCl, 10 mM HEPES pH 7.5, 1% CHAPS); cells serum-starved 24 h, then EGF 50 ng/ml for 10 min; blots for SHP2, EGFR, Gab1

EGFR (from UniProt P00533 25-1210) (receptor)
binding: binds

Reference: paper PMC5432333
